Sequences of proteins named here, by UniProt entry; tags and fusion partners are left off. Residues count along the entry.
UniProt P52948, residues 1-880: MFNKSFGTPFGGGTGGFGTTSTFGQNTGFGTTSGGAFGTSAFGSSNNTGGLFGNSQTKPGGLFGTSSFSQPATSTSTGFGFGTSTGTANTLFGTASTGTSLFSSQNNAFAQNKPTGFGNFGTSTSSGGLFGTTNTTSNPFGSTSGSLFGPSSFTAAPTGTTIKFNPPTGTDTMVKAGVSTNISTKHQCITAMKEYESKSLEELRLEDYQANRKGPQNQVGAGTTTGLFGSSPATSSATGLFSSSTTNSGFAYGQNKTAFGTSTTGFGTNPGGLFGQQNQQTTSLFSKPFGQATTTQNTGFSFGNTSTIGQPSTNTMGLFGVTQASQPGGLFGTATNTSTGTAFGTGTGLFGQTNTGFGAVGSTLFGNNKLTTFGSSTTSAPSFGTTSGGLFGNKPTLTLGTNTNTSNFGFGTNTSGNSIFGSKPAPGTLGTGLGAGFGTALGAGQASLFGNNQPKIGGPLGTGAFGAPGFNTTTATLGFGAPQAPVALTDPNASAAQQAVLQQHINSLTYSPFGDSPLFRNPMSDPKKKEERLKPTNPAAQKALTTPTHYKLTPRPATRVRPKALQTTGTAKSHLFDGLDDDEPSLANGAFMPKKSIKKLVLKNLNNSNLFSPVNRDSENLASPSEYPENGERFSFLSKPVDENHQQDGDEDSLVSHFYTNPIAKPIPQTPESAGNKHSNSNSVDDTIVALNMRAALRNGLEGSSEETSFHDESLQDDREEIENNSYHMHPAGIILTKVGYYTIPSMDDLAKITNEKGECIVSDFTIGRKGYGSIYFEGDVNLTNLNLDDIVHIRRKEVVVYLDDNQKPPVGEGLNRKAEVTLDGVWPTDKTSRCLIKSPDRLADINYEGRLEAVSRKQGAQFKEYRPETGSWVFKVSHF

According to paper PMC11065896:

T1: Sec13 (human (endogenous in HBE41o-)) (UniProt P55735)
T1 sequence: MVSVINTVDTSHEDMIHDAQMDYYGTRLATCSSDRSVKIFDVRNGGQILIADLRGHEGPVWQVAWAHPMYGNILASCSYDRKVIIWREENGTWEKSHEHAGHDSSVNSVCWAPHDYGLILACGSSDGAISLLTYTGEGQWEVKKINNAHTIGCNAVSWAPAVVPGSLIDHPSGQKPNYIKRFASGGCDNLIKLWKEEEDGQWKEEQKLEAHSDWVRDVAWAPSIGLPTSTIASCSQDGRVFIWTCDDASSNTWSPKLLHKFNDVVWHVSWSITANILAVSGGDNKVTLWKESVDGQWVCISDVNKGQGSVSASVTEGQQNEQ


Molecular target: T1, Sec13 (human (endogenous in HBE41o-))
Assay: affinity purification with mass spectrometry; CoPIT: Sec13 antibody cross-linked to GammaBind Plus Sepharose beads, HBE41o- lysate (4 mg total protein per IP), overnight at 4 °C; mock IP with beads without antibody as control; on-bead digestion, 2D LC-MS/MS; three biological replicates

Row | binding | Molecule
1 | binds | Nup98 (from UniProt P52948 1-880)
2 | binds | Sec31A (protein, UniProt O94979 1-1220) MKLKEVDRTAMQAWSPAQNHPIYLATGTSAQQLDATFSTNASLEIFELDLSDPSLDMKSCATFSSSHRYHKLIWGPYKMDSKGDVSGVLIAGGENGNIILYDPSKIIAGDKEVVIAQNDKHTGPVRALDVNIFQTNLVASGANESEIYIWDLNNFATPMTPGAKTQPPEDISCIAWNRQVQHILASASPSGRATVWDLRKNEPIIKVSDHSNRMHCSGLAWHPDVATQMVLASEDDRLPVIQMWDLRFASSPLRVLENHARGILAIAWSMADPELLLSCGKDAKILCSNPNTGEVLYELPTNTQWCFDIQWCPRNPAVLSAASFDGRISVYSIMGGSTDGLRQKQVDKLSSSFGNLDPFGTGQPLPPLQIPQQTAQHSIVLPLKKPPKWIRRPVGASFSFGGKLVTFENVRMPSHQGAEQQQQQHHVFISQVVTEKEFLSRSDQLQQAVQSQGFINYCQKKIDASQTEFEKNVWSFLKVNFEDDSRGKYLELLGYRKEDLGKKIALALNKVDGANVALKDSDQVAQSDGEESPAAEEQLLGEHIKEEKEESEFLPSSGGTFNISVSGDIDGLITQALLTGNFESAVDLCLHDNRMADAIILAIAGGQELLARTQKKYFAKSQSKITRLITAVVMKNWKEIVESCDLKNWREALAAVLTYAKPDEFSALCDLLGTRLENEGDSLLQTQACLCYICAGNVEKLVACWTKAQDGSHPLSLQDLIEKVVILRKAVQLTQAMDTSTVGVLLAAKMSQYANLLAAQGSIAAALAFLPDNTNQPNIMQLRDRLCRAQGEPVAGHESPKIPYEKQQLPKGRPGPVAGHHQMPRVQTQQYYPHGENPPPPGFIMHGNVNPNAAGQLPTSPGHMHTQVPPYPQPQPYQPAQPYPFGTGGSAMYRPQQPVAPPTSNAYPNTPYISSASSYTGQSQLYAAQHQASSPTSSPATSFPPPPSSGASFQHGGPGAPPSSSAYALPPGTTGTLPAASELPASQRTGPQNGWNDPPALNRVPKKKKMPENFMPPVPITSPIMNPLGDPQSQMLQQQPSAPVPLSSQSSFPQPHLPGGQPFHGVQQPLGQTGMPPSFSKPNIEGAPGAPIGNTFQHVQSLPTKKITKKPIPDEHLILKTTFEDLIQRCLSSATDPQTKRKLDDASKRLEFLYDKLREQTLSPTITSGLHNIARSIETRNYSEGLTMHTHIVSTSNFSETSAFMPVLKVVLTQANKLGV
3 | binds | Mios (protein, UniProt Q9NXC5 1-875) MSGTKPDILWAPHHVDRFVVCDSELSLYHVESTVNSELKAGSLRLSEDSAATLLSINSDTPYMKCVAWYLNYDPECLLAVGQANGRVVLTSLGQDHNSKFKDLIGKEFVPKHARQCNTLAWNPLDSNWLAAGLDKHRADFSVLIWDICSKYTPDIVPMEKVKLSAGETETTLLVTKPLYELGQNDACLSLCWLPRDQKLLLAGMHRNLAIFDLRNTSQKMFVNTKAVQGVTVDPYFHDRVASFYEGQVAIWDLRKFEKPVLTLTEQPKPLTKVAWCPTRTGLLATLTRDSNIIRLYDMQHTPTPIGDETEPTIIERSVQPCDNYIASFAWHPTSQNRMIVVTPNRTMSDFTVFERISLAWSPITSLMWACGRHLYECTEEENDNSLEKDIATKMRLRALSRYGLDTEQVWRNHILAGNEDPQLKSLWYTLHFMKQYTEDMDQKSPGNKGSLVYAGIKSIVKSSLGMVESSRHNWSGLDKQSDIQNLNEERILALQLCGWIKKGTDVDVGPFLNSLVQEGEWERAAAVALFNLDIRRAIQILNEGASSEKGDLNLNVVAMALSGYTDEKNSLWREMCSTLRLQLNNPYLCVMFAFLTSETGSYDGVLYENKVAVRDRVAFACKFLSDTQLNRYIEKLTNEMKEAGNLEGILLTGLTKDGVDLMESYVDRTGDVQTASYCMLQGSPLDVLKDERVQYWIENYRNLLDAWRFWHKRAEFDIHRSKLDPSSKPLAQVFVSCNFCGKSISYSCSAVPHQGRGFSQYGVSGSPTKSKVTSCPGCRKPLPRCALCLINMGTPVSSCPGGTKSDEKVDLSKDKKLAQFNNWFTWCHNCRHGGHAGHMLSWFRDHAECPVSACTCKCMQLDTTGNLVPAETVQP

These are yes or no findings as the source states them, for the method shown. In cells and extracts the contact can be indirect. A yes stands for co-enrichment or nearness to the bait. Other partners may have been found.
